Measured values reported in PubChem BioAssay (EPA / NIEHS).
This list was built around the results that the source calls inconclusive (neither active nor inactive); the mix of calls is not that of the screen. For some of these results: Potencies beside an inconclusive call are fits to weak or partial responses and may not hold up. Calls of active or inactive are those of the source. Rule for the calls: active = hit-call score of the fitted dose curve at least 0.9, where 1 is the maximum; inconclusive = response in the unintended direction; inactive = score below 0.9.

Amino acid sequences for entries named in this document (tags omitted). A change or cut given only in a name is not applied to a line headed by its entry.
UniProt P19785, whole entry, looked up: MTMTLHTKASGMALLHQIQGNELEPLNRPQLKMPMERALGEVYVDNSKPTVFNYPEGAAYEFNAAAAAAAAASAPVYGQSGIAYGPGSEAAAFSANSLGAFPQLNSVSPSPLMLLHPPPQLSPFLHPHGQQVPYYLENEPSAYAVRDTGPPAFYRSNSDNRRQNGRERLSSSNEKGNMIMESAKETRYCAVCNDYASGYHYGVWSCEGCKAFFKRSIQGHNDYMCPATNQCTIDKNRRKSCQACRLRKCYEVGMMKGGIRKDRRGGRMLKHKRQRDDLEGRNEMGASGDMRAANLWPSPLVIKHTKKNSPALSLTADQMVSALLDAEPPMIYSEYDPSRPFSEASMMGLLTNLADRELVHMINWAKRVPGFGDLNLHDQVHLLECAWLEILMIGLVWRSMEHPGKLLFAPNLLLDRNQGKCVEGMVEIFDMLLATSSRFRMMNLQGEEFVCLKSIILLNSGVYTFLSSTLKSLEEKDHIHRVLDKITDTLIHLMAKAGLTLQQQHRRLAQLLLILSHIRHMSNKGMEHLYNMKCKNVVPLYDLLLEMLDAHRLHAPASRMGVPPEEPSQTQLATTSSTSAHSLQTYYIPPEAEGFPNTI
UniProt P37231: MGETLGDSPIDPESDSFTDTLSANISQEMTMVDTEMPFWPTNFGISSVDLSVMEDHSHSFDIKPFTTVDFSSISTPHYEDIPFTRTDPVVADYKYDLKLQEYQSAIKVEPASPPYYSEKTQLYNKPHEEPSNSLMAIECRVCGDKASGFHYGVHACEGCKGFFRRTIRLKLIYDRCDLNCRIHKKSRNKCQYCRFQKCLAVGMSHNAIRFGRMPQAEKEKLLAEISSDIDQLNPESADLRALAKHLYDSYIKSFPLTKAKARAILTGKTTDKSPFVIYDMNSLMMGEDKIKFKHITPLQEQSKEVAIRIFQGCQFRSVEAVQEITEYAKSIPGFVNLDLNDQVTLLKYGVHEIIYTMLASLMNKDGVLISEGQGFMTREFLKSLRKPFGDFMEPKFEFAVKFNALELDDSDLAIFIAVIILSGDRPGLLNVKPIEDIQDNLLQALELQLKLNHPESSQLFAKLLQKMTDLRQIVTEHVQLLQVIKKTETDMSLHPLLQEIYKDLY
UniProt Q96RI1: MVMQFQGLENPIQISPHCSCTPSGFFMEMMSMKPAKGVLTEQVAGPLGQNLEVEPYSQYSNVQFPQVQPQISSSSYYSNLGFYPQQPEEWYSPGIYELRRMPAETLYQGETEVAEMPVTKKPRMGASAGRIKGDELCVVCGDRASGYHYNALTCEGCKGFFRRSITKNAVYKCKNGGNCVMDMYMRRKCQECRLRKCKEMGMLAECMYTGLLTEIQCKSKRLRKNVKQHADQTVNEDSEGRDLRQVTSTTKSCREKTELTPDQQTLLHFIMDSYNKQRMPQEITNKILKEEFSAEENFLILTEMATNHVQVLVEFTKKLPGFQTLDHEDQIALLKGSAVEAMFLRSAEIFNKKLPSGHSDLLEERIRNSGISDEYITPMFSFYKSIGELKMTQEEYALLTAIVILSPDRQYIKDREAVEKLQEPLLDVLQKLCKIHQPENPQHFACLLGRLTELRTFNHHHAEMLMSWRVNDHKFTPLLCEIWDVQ
UniProt P10275: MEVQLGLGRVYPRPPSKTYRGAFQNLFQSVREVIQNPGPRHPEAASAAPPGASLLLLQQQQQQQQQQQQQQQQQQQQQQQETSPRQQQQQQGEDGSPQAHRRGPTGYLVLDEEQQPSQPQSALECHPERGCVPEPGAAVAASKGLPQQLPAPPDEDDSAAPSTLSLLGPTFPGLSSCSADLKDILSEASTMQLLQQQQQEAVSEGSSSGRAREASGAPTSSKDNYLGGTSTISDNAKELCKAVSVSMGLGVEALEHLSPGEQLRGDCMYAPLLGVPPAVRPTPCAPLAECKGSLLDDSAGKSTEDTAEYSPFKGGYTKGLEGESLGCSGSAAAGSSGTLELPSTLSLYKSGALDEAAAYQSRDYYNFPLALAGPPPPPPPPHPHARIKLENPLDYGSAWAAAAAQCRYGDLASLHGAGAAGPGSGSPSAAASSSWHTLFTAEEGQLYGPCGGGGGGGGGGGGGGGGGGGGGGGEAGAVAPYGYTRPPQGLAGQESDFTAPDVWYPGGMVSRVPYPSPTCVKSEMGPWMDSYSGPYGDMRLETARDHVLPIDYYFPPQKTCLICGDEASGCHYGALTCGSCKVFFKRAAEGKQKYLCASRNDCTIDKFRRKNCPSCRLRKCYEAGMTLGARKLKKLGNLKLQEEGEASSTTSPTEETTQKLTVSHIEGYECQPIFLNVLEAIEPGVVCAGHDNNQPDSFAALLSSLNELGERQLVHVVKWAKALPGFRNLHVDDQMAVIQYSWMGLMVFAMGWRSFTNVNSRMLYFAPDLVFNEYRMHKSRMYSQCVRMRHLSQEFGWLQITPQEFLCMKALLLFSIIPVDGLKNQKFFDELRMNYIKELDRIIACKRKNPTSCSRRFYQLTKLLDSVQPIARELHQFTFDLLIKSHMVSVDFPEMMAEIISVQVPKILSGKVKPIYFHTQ
UniProt P03372, whole entry, looked up: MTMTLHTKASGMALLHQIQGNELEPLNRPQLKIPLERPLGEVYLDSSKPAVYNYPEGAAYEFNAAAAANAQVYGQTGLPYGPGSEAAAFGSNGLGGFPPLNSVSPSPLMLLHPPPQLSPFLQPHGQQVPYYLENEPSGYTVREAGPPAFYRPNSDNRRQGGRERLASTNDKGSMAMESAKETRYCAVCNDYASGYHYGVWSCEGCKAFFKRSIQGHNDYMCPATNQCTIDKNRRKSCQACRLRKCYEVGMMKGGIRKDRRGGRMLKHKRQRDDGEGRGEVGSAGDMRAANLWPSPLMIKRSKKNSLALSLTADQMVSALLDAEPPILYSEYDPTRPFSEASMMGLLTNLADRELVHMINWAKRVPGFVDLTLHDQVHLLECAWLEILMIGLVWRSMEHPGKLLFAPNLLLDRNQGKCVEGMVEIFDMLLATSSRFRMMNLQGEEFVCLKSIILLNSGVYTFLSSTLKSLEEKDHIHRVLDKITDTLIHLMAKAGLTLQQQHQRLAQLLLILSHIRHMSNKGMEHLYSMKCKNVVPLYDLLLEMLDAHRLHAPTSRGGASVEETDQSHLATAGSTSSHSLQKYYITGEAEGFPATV
UniProt P31652, whole entry, looked up: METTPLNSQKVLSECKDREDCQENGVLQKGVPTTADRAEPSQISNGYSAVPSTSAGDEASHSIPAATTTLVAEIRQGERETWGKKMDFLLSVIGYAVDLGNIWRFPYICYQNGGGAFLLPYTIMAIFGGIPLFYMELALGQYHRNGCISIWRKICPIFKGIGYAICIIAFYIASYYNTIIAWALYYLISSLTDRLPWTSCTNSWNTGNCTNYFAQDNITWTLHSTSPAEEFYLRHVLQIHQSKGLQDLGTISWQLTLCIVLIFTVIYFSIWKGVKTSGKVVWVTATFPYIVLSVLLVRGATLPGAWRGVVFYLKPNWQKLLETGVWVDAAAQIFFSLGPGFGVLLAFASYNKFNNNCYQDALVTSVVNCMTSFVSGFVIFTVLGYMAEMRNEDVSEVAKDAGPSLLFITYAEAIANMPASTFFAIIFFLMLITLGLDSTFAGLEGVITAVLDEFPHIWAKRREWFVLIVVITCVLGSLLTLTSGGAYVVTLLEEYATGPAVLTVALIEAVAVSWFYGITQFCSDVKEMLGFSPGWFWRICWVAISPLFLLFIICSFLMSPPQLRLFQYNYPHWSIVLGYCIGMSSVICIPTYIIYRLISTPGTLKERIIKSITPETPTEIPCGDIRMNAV
UniProt P31645, whole entry, looked up: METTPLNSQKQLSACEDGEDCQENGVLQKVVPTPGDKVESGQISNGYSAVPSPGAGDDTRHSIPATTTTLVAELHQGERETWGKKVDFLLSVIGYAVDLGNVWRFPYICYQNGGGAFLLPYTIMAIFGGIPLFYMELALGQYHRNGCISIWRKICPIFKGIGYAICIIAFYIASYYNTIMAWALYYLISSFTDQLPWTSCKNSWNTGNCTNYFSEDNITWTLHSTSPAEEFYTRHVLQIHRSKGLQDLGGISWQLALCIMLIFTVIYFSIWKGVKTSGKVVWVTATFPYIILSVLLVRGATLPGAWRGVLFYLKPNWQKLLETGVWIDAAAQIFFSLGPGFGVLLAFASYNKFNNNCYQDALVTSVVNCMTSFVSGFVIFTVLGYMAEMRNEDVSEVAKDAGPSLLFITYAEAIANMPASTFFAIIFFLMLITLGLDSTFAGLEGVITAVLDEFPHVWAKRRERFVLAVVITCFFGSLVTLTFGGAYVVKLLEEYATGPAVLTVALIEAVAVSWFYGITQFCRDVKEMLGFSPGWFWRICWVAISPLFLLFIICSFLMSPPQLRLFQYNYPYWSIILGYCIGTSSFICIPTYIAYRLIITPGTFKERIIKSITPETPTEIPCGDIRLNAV
UniProt Q92731, whole entry, looked up: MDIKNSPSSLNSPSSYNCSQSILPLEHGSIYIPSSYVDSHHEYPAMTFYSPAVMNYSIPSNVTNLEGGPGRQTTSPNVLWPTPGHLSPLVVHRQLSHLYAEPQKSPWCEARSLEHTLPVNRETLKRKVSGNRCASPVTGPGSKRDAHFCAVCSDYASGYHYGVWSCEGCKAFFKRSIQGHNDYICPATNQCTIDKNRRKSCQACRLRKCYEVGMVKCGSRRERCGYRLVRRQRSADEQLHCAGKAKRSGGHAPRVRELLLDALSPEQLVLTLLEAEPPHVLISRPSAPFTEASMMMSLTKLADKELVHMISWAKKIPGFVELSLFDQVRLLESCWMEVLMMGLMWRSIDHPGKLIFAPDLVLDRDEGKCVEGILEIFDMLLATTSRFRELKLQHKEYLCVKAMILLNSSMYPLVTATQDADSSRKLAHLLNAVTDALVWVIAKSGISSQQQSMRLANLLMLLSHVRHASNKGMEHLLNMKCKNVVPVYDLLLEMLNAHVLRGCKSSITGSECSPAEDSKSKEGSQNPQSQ

Assays:
[1] = biological target: mouse Estrogen Receptor alpha (Era), Esr1 (gene 13982) (UniProt P19785); test: NVS_NR_mERa: NovaScreen (NVS) Nuclear Receptor Binding Assay for mouse Estrogen Receptor alpha (Era) (AID 2283378);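 note: hit means loss of bound radioligand signal relative to DMSO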
Outline: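 Filter radiodetection of radioligand displacement from extracted receptor protein, measured 18 h post-dose. Single 25 uM concentration in duplicate initially, with concentration-series follow-up. Binding loss fitted relative to DMSO.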

[2] = biological target: Peroxisome proliferator-activated receptor gamma (Homo sapiens) (UniProt P37231); test: NVS_NR_hPPARg: NovaScreen (NVS) Nuclear Receptor Binding Assay for human Peroxisome Proliferator-activated Receptor gamma (PPARg) (AID 2283370)
Outline: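 Fluorescence polarization readout of ligand binding to extracted human PPARg, measured at 2 h. Duplicate single-point screen at 25 uM, then concentration-series retesting; activity defined as signal loss versus DMSO.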

[3] = biological target: Bile acid receptor (Homo sapiens) (UniProt Q96RI1); test: OT_FXR_FXRSRC1_0480: Odyssey Thera (OT) 8-hour HEK293T Protein-Complementation Assay for Farnesoid X receptor/SRC-1 Co-activator (AID 2283383)
Outline: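 HEK293T cells expressing FXR and SRC-1 fused to reporter fragments were dosed with compound for 8 h; fluorescence from the reconstituted reporter marked co-activator recruitment. Gain of signal was fitted against the DMSO baseline.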

[4] = biological target: Bile acid receptor (Homo sapiens) (UniProt Q96RI1); test: OT_FXR_FXRSRC1_1440: Odyssey Thera (OT) 24-hour HEK293T Protein-Complementation Assay for Farnesoid X receptor/SRC-1 Co-activator (AID 2283384)
Outline: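 HEK293T cells were dosed with compound and read 24 h later by fluorescence intensity from protein-fragment complementation reporting FXR/SRC-1 co-activator interaction. Gain of signal was fitted relative to DMSO negative control as baseline.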

[5] = biological target: Agonist Androgen Response Element (ARE), AR (gene 367) (UniProt P10275); test: OT_AR_ARELUC_AG_1440: Odyssey Thera (OT) 24-hour CHO-K1 Luciferase Assay for Agonist Androgen Response Element (ARE) (AID 2283379)
Outline: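 CHO-K1 cells carrying an ARE-driven luciferase reporter were exposed to compounds for 24 h. Luminescence was then read after adding a D-luciferin/ATP mix, and activity was scored as a gain in signal over DMSO vehicle.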

[6] = biological target: Estrogen receptor (Homo sapiens) (UniProt P03372); test: OT_ERa_GFPERaERE_0120: Odyssey Thera (OT) 2-hour HeLa Transcription Induction Assay for Estrogen Receptor (AID 2283382)
Outline: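 HeLa cells were dosed with test chemical and read 2 hours later for GFP-ERα/ERE-linked fluorescent protein induction by fluorescence microscopy. Gain-of-signal was fitted relative to DMSO baseline, quantified by high content image analysis.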

[7] = biological target: rat Serotonin Transporter (SERT), Slc6a4 (gene 25553) (UniProt P31652); test: NVS_TR_rSERT: NovaScreen (NVS) Transporter Assay for rat Serotonin Transporter (SERT) (AID 2283375)
Outline: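 Radioligand binding with competitive displacement on rat forebrain membrane preparations, counted by filtration and scintillation after 1 h. Primary single-point duplicates at 25 uM; active chemicals followed up in concentration-response. DMSO served as baseline.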

[8] = biological target: human Serotonin Transporter (SERT), SLC6A4 (gene 6532) (UniProt P31645); test: NVS_TR_hSERT: NovaScreen (NVS) Transporter Assay for human Serotonin Transporter (SERT) (AID 2283372)
Outline: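 Radioligand binding to native SERT in human platelet membranes, read by filter-based scintillation counting 1 h after dosing. Primary screen in duplicate at 25 uM; actives followed up in concentration series; loss of signal versus DMSO baseline.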

[9] = test system: rat Norepinephrine Transporter (NET), gene 83511; test: NVS_TR_rNET: NovaScreen (NVS) Transporter Assay for rat Norepinephrine Transporter (NET) (AID 2283373)
Outline: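 Rat forebrain membranes; radioligand binding measured by filter-based scintillation counting 1 hour after dosing. Loss of specific binding versus DMSO baseline scored; primary screen in duplicate at 25 uM, actives followed up in concentration series.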

[10] = biological target: Estrogen receptor beta (Homo sapiens) (UniProt Q92731); test: OT_ER_ERbERb_1440: Odyssey Thera (OT) 24-hour HEK293T Protein-Complementation Assay for Estrogen Receptor-beta/-beta Homodimer (AID 2283380);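 note: scored as signal increase over DMSO baseline for both agonists and antagonists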
Outline: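 HEK293T cells stably expressing ER beta LBD (aa 310-547) homodimer fragment-complementation reporter, dosed 24 h. Cells formaldehyde-fixed, Draq5-stained; gain in nuclear (agonist) or nuclear plus cytoplasmic (antagonist) fluorescence versus DMSO read by laser scanning cytometry.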

CN1CCC[C@H]1c1cccnc1
AC50 [1]: inconclusive: 46.1 µM

CCCCNC(=S)NCCCC
AC50 [2]: inconclusive: 199 nM
outcome [3]: inactive
outcome [4]: inactive

COc1cc(-c2nc(NC(=O)c3cc4cc(C)cc(C)c4n3CC(=O)O)sc2CCC2CCCCC2)c(OC)cc1Cl
AC50 [2]: active: 181 nM
AC50 [1]: inconclusive: 1.09 µM
AC50 [5]: inconclusive: 42.2 µM

CCCCc1nc2cccnc2n1Cc1ccc(-c2ccccc2-c2nnn[nH]2)cc1
AC50 [2]: active: 4960 nM
AC50 [3]: active: 60.8 µM

COc1ccc(C)cc1N
AC50 [1]: inconclusive: 0.0069 µM

CC(C)CC(C)O (stereo unspecified)
AC50 [2]: inconclusive: 6000 nM
outcome [6]: inactive
outcome [3]: inactive
AC50 [4]: inconclusive: 50 µM

Cc1cccc(N(C)C)c1
outcome [7]: inactive

CCCCCC[C@@H](O)C/C=C\CCCCCCCC(=O)O
AC50 [2]: active: 15100 nM
AC50 [3]: active: 74.3 µM

CC(C)(C)c1cccc(C(C)(C)C)c1O
AC50 [2]: inconclusive: 6820 nM
AC50 [4]: inconclusive: 1.25 µM

CCCCC(CC)COP(=O)(OCC(CC)CCCC)OCC(CC)CCCC (stereo unspecified)
AC50 [7]: inconclusive: 92.7 nM
AC50 [3]: active: 15.6 µM
AC50 [4]: active: 67.1 µM

O=C(N[C@@H](Cc1ccccc1)[C@@H](O)C(=O)N1C[C@@H](O)[C@@H](O)C1)c1cc2cc(Cl)ccc2[nH]1
outcome [8]: inactive
outcome [1]: inactive

CCOCCOCCOCCO
AC50 [7]: inconclusive: 115 nM

CC(C)(C)c1ccc(O)c(C(C)(C)C)c1
AC50 [2]: inconclusive: 28.4 nM
AC50 [3]: inconclusive: 90.6 µM
AC50 [4]: inconclusive: 78 µM

CN(c1nccc(=O)[nH]1)C1CCN(c2nc3ccccc3n2Cc2ccc(F)cc2)CC1
AC50 [7]: inconclusive: 2280 nM

O=C(Oc1ccccc1)c1cccc(C(=O)Oc2ccccc2)c1
AC50 [2]: inconclusive: 50.1 nM
AC50 [3]: active: 72 µM

Sc1nc2ccccc2s1
AC50 [2]: inconclusive: 70.6 nM
AC50 [3]: inconclusive: 50 µM

CCc1ccc(CCOc2ccc(CC3SC(=O)NC3=O)cc2)nc1 (stereo unspecified)
AC50 [7]: inconclusive: 204 nM

CCCCC(CC)COC(=O)CCCCC(=O)OCC(CC)CCCC (stereo unspecified)
AC50 [2]: inconclusive: 179 nM
outcome [4]: inactive

C=CCc1cc(S(=O)(=O)c2ccc(O)c(CC=C)c2)ccc1O
AC50 [2]: active: 621 nM
AC50 [1]: active: 14.6 µM
AC50 [5]: inconclusive: 24.7 µM
AC50 [3]: inconclusive: 83 µM
AC50 [4]: inconclusive: 8.35 µM

Oc1c(Cl)cc(Cl)cc1Sc1cc(Cl)cc(Cl)c1O
AC50 [1]: inconclusive: 44.9 µM

NNc1nc(-c2ccc(N)cc2)cs1
AC50 [1]: inconclusive: 16 µM

CCCCCCCCCCCC(=O)OC
outcome [2]: inactive
outcome [4]: inactive

C=CC(=O)OCC(CO)(COCC(COC(=O)C=C)(COC(=O)C=C)COC(=O)C=C)COC(=O)C=C
AC50 [1]: inconclusive: 24.8 µM

CCn1nc(C)c2c1C(=O)NCC(c1ccc(O)cc1)=N2
AC50 [8]: inconclusive: 58.7 nM
outcome [9]: inactive
AC50 [7]: inconclusive: 115 nM

Nc1ccccc1N
AC50 [2]: inconclusive: 6.65 nM
AC50 [1]: inconclusive: 21.3 µM

COc1cc(S(=O)(=O)O)c(C)cc1N=Nc1c(O)ccc2cc(S(=O)(=O)O)ccc12
AC50 [8]: inconclusive: 25000 nM
outcome [4]: inactive

CCOC(=O)C(C)Oc1ccc(Oc2nc3ccc(Cl)cc3o2)cc1 (stereo unspecified)
outcome [2]: inactive
AC50 [5]: inconclusive: 93.2 µM

CCCCOC(=O)c1ccccc1
AC50 [7]: inconclusive: 177 nM

CCCOc1sc(C(=O)N2CCC(c3cc(CN)ccc3F)CC2)c(C)c1Br
AC50 [7]: active: 23200 nM
AC50 [1]: active: 5.52 µM

CCCCCCCC/C=C\CCCCCCCC(=O)N(C)CC(=O)O
AC50 [2]: inconclusive: 25000 nM
outcome [4]: inactive

Oc1ccccc1
AC50 [2]: inconclusive: 754 nM
AC50 [3]: inconclusive: 50 µM
AC50 [4]: inconclusive: 50 µM

CC(C)c1nnc2ccc(-c3ocnc3-c3cc(F)ccc3F)cn12
AC50 [8]: inconclusive: 448 nM
AC50 [7]: inconclusive: 82.9 nM

CCc1cccc(CC)c1N
AC50 [8]: inconclusive: 667 nM

Cc1oc2c(NC(=O)c3c(Cl)cccc3Cl)cccc2c1C(C)(C)O
outcome [2]: inactive
AC50 [4]: active: 13.5 µM

CCOC(=O)c1ccccc1C
AC50 [2]: inconclusive: 25000 nM
AC50 [4]: inconclusive: 50 µM

CC(C)CCCCCCOC(=O)c1ccc(C(=O)OCCCCCCC(C)C)c(C(=O)OCCCCCCC(C)C)c1
outcome [10]: inactive

CCC(C)C1CCCCC1=O (stereo unspecified)
outcome [6]: inactive

CCCCCCC(=O)O
outcome [3]: inactive
outcome [4]: inactive

CC(C)(C)CC(C)(C)c1ccc(O)c(-n2nc3ccccc3n2)c1
AC50 [3]: active: 35.7 µM
AC50 [4]: active: 34.5 µM
